The list is a part of this screen's results and no random one: it gathers tests that were run many times, whatever their T/C, doses with no T/C, and many T/C values between a quarter and a half above the control. Further doses and runs are listed elsewhere. T/C is the treated group as % of the vehicle group. Some doses have a count of surviving animals in place of a T/C: the source holds a T/C of zero for them, seemingly a mark for toxic or unscored doses. Some survivor counts are full or nearly so, which does not show that the dose was tolerated: survival well below the control is almost never listed, so the zero probably covers shortened survival too. Counts of survivors are from the toxicity check (mostly the fifth day) where no day follows; animals may have died later. Schedules are NCI's codes, taken here to give the interval after Q, in days (D) or hours (H), and the number of doses after X. For survival time, this PubChem deposit counts one and a half times the control or more as active, and values a quarter to a half above the control carry no call in these data; other NCI protocols may use other cut-offs. Some T/C values are followed by the survivors on the day toxicity was checked, most often the fifth; without a count, all were alive then. Some entries were tested several times; the results are listed from low to high.

For this assay, the system named is P388 leukemia ip, CD2F1 mice, survival T/C. The assay is described as follows: NCI In Vivo Anticancer Drug Screen. Data for tumor model P388 Leukemia (intraperitoneal) in CD2F1 (CDF1) mice. Conditions: T/C endpoint: median survival time, higher T/C = longer survival.
[1] abbreviates: dose: 100.0 mg/kg/injection, schedule: Q01DX009 (ip), vehicle: saline with Tween-80.
The mark [2] stands for this setting: dose: 200.0 mg/kg/injection, schedule: Q01DX009 (ip), vehicle: saline with Tween-80.
The mark [3] stands for this setting: dose: 60.0 mg/kg/injection, schedule: Q01DX005 (ip), vehicle: saline with Tween-80.
[4] abbreviates: dose: 120.0 mg/kg/injection, schedule: Q01DX005 (ip), vehicle: saline with Tween-80.
Setting [5] is: dose: 12.5 mg/kg/injection, schedule: Q01DX009 (ip), vehicle: Klucel (hydroxypropylcellulose) (HPC).
Setting [6] is: dose: 100.0 mg/kg/injection, schedule: Q01DX009 (ip), vehicle: Klucel (hydroxypropylcellulose) (HPC).
Where [7] appears, read: dose: 200.0 mg/kg/injection, schedule: Q01DX009 (ip), vehicle: Klucel (hydroxypropylcellulose) (HPC).
[8] abbreviates: dose: 200.0 mg/kg/injection, schedule: Q01DX005 (ip), vehicle: saline with Tween-80.
The mark [9] stands for this setting: dose: 240.0 mg/kg/injection, schedule: Q01DX005 (ip), vehicle: Klucel (hydroxypropylcellulose) (HPC).
[10] abbreviates: dose: 25.0 mg/kg/injection, schedule: Q01DX009 (ip), vehicle: saline with Tween-80.
[11] abbreviates: dose: 50.0 mg/kg/injection, schedule: Q01DX009 (ip), vehicle: Klucel (hydroxypropylcellulose) (HPC).
[12] abbreviates: dose: 240.0 mg/kg/injection, schedule: Q01DX005 (ip), vehicle: saline with Tween-80.
Setting [13] is: dose: 200.0 mg/kg/injection, schedule: Q04DX003 (ip), vehicle: Klucel (hydroxypropylcellulose) (HPC).
[14] abbreviates: dose: 100.0 mg/kg/injection, schedule: Q01DX005 (ip), vehicle: saline with Tween-80.

For `Cc1cc(OC(=O)Nc2cc([N+](=O)[O-])ccc2C)c(Br)cc1Cl`, the survivor count by setting is: under setting [1], 3 of 6; under setting [2], 1 of 6.

As to `CCCCCCCC/C=C\CCCCCCCC(=O)OCC(COC(=O)CCCCCCC/C=C\CCCCCCCC)OC(=O)N(CCCl)CCCl`, the T/C runs as follows: under setting [3], 125 % of control; under setting [4], 148 % of control.

As to `Nc1nc(Sc2ccc([N+](=O)[O-])c3nonc23)c2ncn(C3OC(CO)C(O)C3O)c2n1` (stereo unspecified), the T/C is, setting by setting: under setting [5], 131 and 145 % of control; (dose: 25.0 mg/kg/injection, schedule: Q01DX009 (ip), vehicle: Klucel (hydroxypropylcellulose) (HPC)) 144 % of control. For the same compound, the survivor count runs as follows: under setting [6], 6 of 6; under setting [7], 6 of 6.

As for `C/C1=C\C(=O)OCC23CCC4(C)OC4C2OC2CC(OC(=O)/C=C/C=C/C(C(C)O)OCC1O)C3(C)C21CO1` (stereo unspecified), the T/C by setting is: (dose: 2.5 mg/kg/injection, schedule: Q01DX005 (ip), vehicle: saline + alcohol) 128 and 129 % of control; (dose: 5.0 mg/kg/injection, schedule: Q01DX005 (ip), vehicle: saline + alcohol) 136 % of control; (dose: 10.0 mg/kg/injection, schedule: Q01DX005 (ip), vehicle: saline + alcohol) 137 % of control.

For the compound `CCOC(=O)/C(Cl)=N/Nc1ccccc1`, the survivor count under setting [8] was 4 of 6.

Take `Fc1ccc2nc3ccccc3c(SCCCCCSc3c4ccccc4nc4ccc(F)cc34)c2c1`: the survivor count under setting [9] is 6 of 6.

Take `CCCCCCCCCCCC(=O)NCCCCCC(=O)NC1C(C)OC(Nc2ncnc3nc[nH]c23)C(O)C1O` (stereo unspecified): the survivor count (dose: 4.0 mg/kg/injection, schedule: Q01DX009 (ip), vehicle: distilled water + Tween-80) was 6 of 6. Moreover, for the setting “dose: 16.0 mg/kg/injection, schedule: Q01DX009 (ip), vehicle: water”, the T/C is 128 % of control.

Regarding `COc1ccc(NC(C)=NC(C)C)cc1`, the survivor count runs as follows: under setting [10], 6 of 6; (dose: 100.0 mg/kg/injection, schedule: Q01DX009 (ip), vehicle: saline + Tween-80 + alcohol) 4 of 6; (dose: 200.0 mg/kg/injection, schedule: Q01DX009 (ip), vehicle: saline + Tween-80 + alcohol) 0 of 6.

`c1cc2ccc3ccc(C4CO4)c4ccc(c1)c2c34` (stereo unspecified): the survivor count under setting [11] was 5 of 6, the survivor count under setting [6] is listed as 3 of 6 and the survivor count under setting [7] was 1 of 6.

`Cc1ccc(C(=O)Cc2ccccc2C#N)cc1`: the survivor count is reported as 5 of 5 (dose: 50.0 mg/kg/injection, schedule: Q01DX005 (ip), vehicle: Klucel (hydroxypropylcellulose) (HPC)) and 5 of 5 (dose: 100.0 mg/kg/injection, schedule: Q01DX005 (ip), vehicle: Klucel (hydroxypropylcellulose) (HPC)).

With `CC1=CC(C)(C)N(C)C(N)=N1`, the survivor count is on record as 3 of 5 (dose: 50.0 mg/kg/injection, schedule: Q01DX005 (ip), vehicle: saline); 0 of 6 (dose: 100.0 mg/kg/injection, schedule: Q01DX005 (ip), vehicle: saline); 0 of 6 (dose: 200.0 mg/kg/injection, schedule: Q01DX005 (ip), vehicle: saline).

With `O=c1nc2sccn2c2ncccc12`, the survivor count was 0 of 6 under setting [3], 0 of 6 under setting [4] and 0 of 6 under setting [12].

With `COC(=O)[C@@H]1C(=O)[C@H](C(=O)OC)C2CCCC3CCCC1N32` (stereo partly specified), the survivor count under setting [8] is recorded as 5 of 6.

In the case of `COC(=O)c1nc(N)nc(C(=O)OC)c1C(=O)c1ccc([N+](=O)[O-])cc1`, the survivor count under setting [12] is reported as 0 of 6.

As for `C=CCNC(=O)c1ccccc1SC(C)=O`, the T/C reads like this: under setting [1], 138 % of control; under setting [2], 141 % of control; (dose: 400.0 mg/kg/injection, schedule: Q01DX009 (ip), vehicle: saline with Tween-80) 130 % of control [5 of 6 alive].

Turning to `O/C(=C\C(=S)S)c1ccccc1`, the survivor count reads like this: (dose: 12.5 mg/kg/injection, schedule: Q04DX003 (ip), vehicle: Klucel (hydroxypropylcellulose) (HPC)) 5 of 6; (dose: 25.0 mg/kg/injection, schedule: Q04DX003 (ip), vehicle: Klucel (hydroxypropylcellulose) (HPC)) 0 of 6; (dose: 50.0 mg/kg/injection, schedule: Q04DX003 (ip), vehicle: Klucel (hydroxypropylcellulose) (HPC)) 0 of 6; (dose: 100.0 mg/kg/injection, schedule: Q04DX003 (ip), vehicle: Klucel (hydroxypropylcellulose) (HPC)) 2 of 6; under setting [13], 0 of 6; (dose: 400.0 mg/kg/injection, schedule: Q04DX003 (ip), vehicle: Klucel (hydroxypropylcellulose) (HPC)) 0 of 6.

For the compound `Fc1ccc(Nc2nnc(-c3ccc(Cl)cc3Cl)o2)cc1`, the survivor count under setting [14] is 6 of 6.

For the compound `CCCCN1C/C(=C\c2ccc(Br)cc2)C(=O)/C(=C/c2ccc(Br)cc2)C1`, the survivor count is 6 of 6 (dose: 50.0 mg/kg/injection, schedule: Q01DX005 (ip), vehicle: saline with Tween-80); 6 of 6 under setting [14]; 6 of 6 under setting [8].

As for `COC1=Nc2ccccc2S(=O)(=O)C=C1`, the survivor count is 3 of 6 under setting [4] and 1 of 6 under setting [12].

As to `COc1ccc2c3c1OC1C(O)C=CC4C(C2)N(C)CCC341` (stereo unspecified), the survivor count was 0 of 6 under setting [10]; 3 of 6 (dose: 50.0 mg/kg/injection, schedule: Q01DX009 (ip), vehicle: saline with Tween-80); 0 of 6 under setting [1]; 0 of 6 under setting [2].

In the case of `COc1cc2c(cc1OC)CN1CCc3cc(OC)c(OC)cc3[C@@H]1C2`, the survivor count is recorded as 5 of 5 under setting [14] and 2 of 5 under setting [8].

Regarding `O=C(OC1(c2nccc3ccccc23)CCCCC1)c1ccccc1`, under setting [5], the survivor count is 6 of 6.

As for `CC1(C)N=C(N)N=C(N)N1c1ccc(C(C#N)CCCc2ccccc2)cc1` (stereo unspecified), the survivor count reads like this: (dose: 60.0 mg/kg/injection, schedule: Q01DX005 (ip), vehicle: Klucel (hydroxypropylcellulose) (HPC)) 0 of 6; (dose: 120.0 mg/kg/injection, schedule: Q01DX005 (ip), vehicle: Klucel (hydroxypropylcellulose) (HPC)) 0 of 6; under setting [9], 0 of 6.

As to `O=C(O)c1ccc2c(c1Cl)C(=O)c1ccccc1C2=O`, the survivor count under setting [13] was 5 of 6.

Take `C/C(=C\c1cc2cc(C(=N)N)ccc2o1)c1cc2cc(C(=N)N)ccc2o1`: the T/C is 137 % of control (dose: 100.0 mg/kg/injection, schedule: Q04DX002 (ip), vehicle: saline) and 144 % of control (dose: 200.0 mg/kg/injection, schedule: Q04DX002 (ip), vehicle: saline).

For the compound `O=S1(=O)C2C=CC1C(Br)C(Br)CC2` (stereo unspecified), the survivor count under setting [11] is reported as 6 of 6.

As for `O=C1C=CC2(C=C1)CCCCC2`, under “dose: 200.0 mg/kg/injection, schedule: Q01DX001 (ip), vehicle: Klucel (hydroxypropylcellulose) (HPC)”, the survivor count is recorded as 3 of 6.

`COc1cc2c(cc1OC)C(Cc1cc(OC)c(OC)cc1[N+](=O)[O-])=[N+](C)CC2`: the survivor count runs as follows: (dose: 200.0 mg/kg/injection, schedule: Q01DX009 (ip), vehicle: other) 3 of 6; (dose: 400.0 mg/kg/injection, schedule: Q01DX009 (ip), vehicle: other) 0 of 6.

As to `NC(=S)N/N=C\C(=O)c1ccccc1O`, under “dose: 37.5 mg/kg/injection, schedule: Q01DX009 (ip), vehicle: saline with Tween-80”, the T/C is 87, 93 [5 of 6 alive], 110, 134 % of control. Further, the survivor count (dose: 75.0 mg/kg/injection, schedule: Q01DX009 (ip), vehicle: saline with Tween-80) is recorded as 6 of 6.

For `O=S(=O)(O)O.[NH-]CCC[NH-].[Pt+2]`, the survivor count (dose: 25.0 mg/kg/injection, schedule: Q04DX002 (ip), vehicle: saline) is 1 of 6.
